Measurements reported in PubChem BioAssay AID1671195 (Yale University, 2021).

- Aim: 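Knockdowns that increase or decrease uptake of fluorescent LDL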 (primary screen)
- System: human Huh7 hepatoma cells
- Reagents: siRNA pool against human genes, 18 nM
- Duration: about 2 to 2.5 days of knockdown, then 8 h LDL uptake
- Treatment: DiI-labelled LDL at 30 µg/ml for 8 h, in lipoprotein-deficient serum medium
- Measured: 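Per-cell DiI-LDL intensity by automated imaging; well means scaled to the plate median and given as a robust z-score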
- Reading the numbers: robust z-score: higher = more LDL uptake after knockdown
- Hit rule: 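a gene counts as active if at least two replicate z-scores exceed ±2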
In all, the deposit lists about 22,000 reagents; below is an unselected part. About 1,510 of all reagents (6.9%) were called active. 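Active includes knockdowns raising or lowering LDL uptake; positive z-scores mean more uptake, negative mean less.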 Unmarked entries are inactive. Reagent sequences are not shown.

gene knocked down | robust z-score, replicate 1 | robust z-score, replicate 2 | robust z-score, replicate 3
C3P1 | -1.77 | -1.71 | -1.59
SEC63 | -0.312 | 0.164 | -0.156
LRTM3 | -0.13 | -0.63 | 0.193
GYPE | -0.0506 | 0.499 | -0.288
TTC36 | -0.357 | 0.137 | -0.338
PLSCR2 | -1.13 | -0.283 | 0.0245
PCDHA4 | -0.00238 | 0.168 | 0.101
MKRN2 | 0.0661 | 0.357 | 0.0732
EEF1DP2 | 1.86 | 1.55 | 1.17
FANCE | 0.505 | 1.6 | 1.38
SATL1 | -1.11 | -1.41 | -1.31
PRSS2 | 0.889 | 1.27 | 0.568
CGN | -0.597 | -0.298 | -0.167
OR13G1 | 0.403 | 0.243 | 0.369
TSPO2 | 1.32 | 1.38 | 1.36
FKBP14 | 0.101 | 0.506 | 0.758
ORC5 | -0.583 | -0.649 | -0.24
MUSK | -0.211 | -0.738 | -0.597
RANBP3 | -0.565 | -0.0826 | -0.383
CERS4 | -0.0471 | -0.717 | -0.72
PPARA | 1.87 | 0.537 | 1.81
WDFY4 | -1.33 | -0.18 | -1.48
SRSF12 | -0.65 | -0.632 | -1.17
YJEFN3 | 0.279 | 0.665 | 0.474
TLX2 | -1.5 | -0.55 | -0.965
H2AC17 | 0.751 | -1.54 | -0.615
AP2M1 | -1.79 | -1.43 | -2.21
PRB3 | -1.28 | 0.946 | -0.953
TET1 | 1.02 | 0.704 | 1.28
PSENEN | -2.68 | 0.502 | 0.125
HADHA | 0.465 | 0.517 | 0.576
PCNA | 0.912 | -0.0515 | 1.68
MAGEB1 | -1.88 | -1.61 | -2.05
TMEM230 | -0.101 | -0.165 | 0.611
ATP23 | 0.41 (active) | 3.19 | 2.02
OR3A1 | 1.19 | 0.854 | 1.21
INSIG2 | -0.227 | -1.46 | -0.214
LINC02551 | -1.63 | -1.24 | -1.4
PCDH9 | 0.301 | 0.723 | 0.85
EBLN1 | 2.94 (active) | 3.14 | 2.38
ASB16-AS1 | -0.816 | -0.356 | -0.756
LRRC37BP1 | -1.55 | -1.33 | -1.3
LINC01465 | -0.504 | -0.367 | -0.637
LOC283804 | 2.42 (active) | 2.6 | 2.29
GFRA1 | -0.123 | 1.11 | -0.287
FAAP24 | 2.04 (active) | 2.17 | 2.18
CMIP | -0.418 | -0.647 | -1.04
CRLF3 | 0.402 | 0.923 | 1.26
SELENBP1 | -0.893 | 0.785 | 0.33
EYA3 | 0.224 | -0.34 | -0.61
ACBD3 | -0.671 | -0.792 | -1.74
JMJD6 | -0.328 | -0.547 | -0.806
LOC285770 (retired record) | -0.341 | -0.177 | -0.228
STIM1 | -0.174 | 0.715 | 1.61
ZNF511 | -0.649 | -0.152 | -0.359
GET3 | -1.01 | -0.946 | -1.33
STARD7 | 0.704 | 0.397 | 2.11
PPP2R5B | -0.218 | 0.0671 | -0.0833
UBE2B | 0.278 | -0.464 | 0.719
FOXD1 | 0.895 | -0.326 | 1.47
LOC390192 (retired record) | 1.16 | 0.24 | 0.191
CD38 | 1.63 | 0.207 | 1.2
COQ2 | -0.801 | -0.621 | -0.625
LOC400675 (retired record) | -1.94 (active) | -2.02 | -1.88
COG7 | -1.74 | -0.918 | -0.805
EIF3J | 7.46 (active) | 2.02 | 4.04
RPL18AP4 | -0.241 | -0.759 | -1.78
LOC441097 (retired record) | 0.632 | 0.521 | 0.687

Hits, among the entries above:
gene knocked down | robust z-score, replicate 1 | robust z-score, replicate 2 | robust z-score, replicate 3
ATP23 | 0.41 (active) | 3.19 | 2.02
EBLN1 | 2.94 (active) | 3.14 | 2.38
LOC283804 | 2.42 (active) | 2.6 | 2.29
FAAP24 | 2.04 (active) | 2.17 | 2.18
LOC400675 (retired record) | -1.94 (active) | -2.02 | -1.88
EIF3J | 7.46 (active) | 2.02 | 4.04
